At least one structure is not confirmed: it was looked up by name or label, or the drawing left a doubt.
System: Male Syrian hamsters
Assay: LDL-cholesterol, total-cholesterol and triglyceride lowering effect in hypercholesterolemic hamsters
Type: in vivo
Conditions: hamsters on high-fat cholesterol-rich diet, 200 mg/kg daily for 14 days, compared to vehicle

## CC(C)OC(=O)C(C)(C)Oc1ccc(C(=O)c2ccc(Cl)cc2)cc1 [fenofibrate]
  reduction in total cholesterol and triglyceride levels: did not show significant efficacy

— patent US20060166983A1, “Indole derivatives as ppar modulators” (Eli Lilly and Company, priority 2003, published 2006)
